Measurements reported in PubChem BioAssay AID1259259 (Sanger Institute, 2017)
Purpose: 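Kinome siRNA search for kinases essential alone or combined with trametinib, cetuximab or BYL719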 (primary screen). System: SW1463 human colorectal cancer cells. Knock-down reagent: siRNA pool against human genes. Challenge: DMSO vehicle, or one anchor drug: BYL719 at 1 µM, cetuximab at 5 µg/ml, or trametinib at 10 nM. Measured: 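Viability relative to control pool 2 (non-targeting) averaged over replicates, robust z-score for knock-down with no drug, and for each anchor drug the mean synergy score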. Scale: robust z-score, knock-down alone: higher = more viable cells after knock-down; viability, knock-down alone: higher = more viable cells. Units: viability, knock-down alone in fraction of control. Active means: 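a robust z-score under -3 for knock-down with no drug marks the gene as essential, meaning viability loss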. Calls: active = essential: viability loss from knock-down alone; inactive = no change from knock-down alone.
Shown is an unselected part of 794 reagents tested. Of all reagents, 9 (1.1%) got an active call. 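Calls rest on knock-down alone, not drug synergy; viability values seem capped at 1.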 Entries without a mark were called inactive. Not all columns of the deposit are shown. No sequences are given here. Not given: the amount of reagent, the time to read-out.

{"gene knocked down": "MSR1 (macrophage scavenger receptor 1)", "robust z-score, knock-down alone": -0.232, "viability, knock-down alone": 0.913}
{"gene knocked down": "APC (APC regulator of Wnt signaling pathway)", "robust z-score, knock-down alone": -1.71, "viability, knock-down alone": 0.818}
{"gene knocked down": "TJP2 (tight junction protein 2)", "robust z-score, knock-down alone": -0.18, "viability, knock-down alone": 0.916}
{"gene knocked down": "PCK2 (phosphoenolpyruvate carboxykinase 2, mitochondrial)", "robust z-score, knock-down alone": 1.13, "viability, knock-down alone": 1}
{"gene knocked down": "PRPS1L1 (phosphoribosyl pyrophosphate synthetase 1 like 1)", "robust z-score, knock-down alone": 0.632, "viability, knock-down alone": 0.968}
{"gene knocked down": "DDR2 (discoidin domain receptor tyrosine kinase 2)", "robust z-score, knock-down alone": 0.422, "viability, knock-down alone": 0.955}
{"gene knocked down": "PTK7 (protein tyrosine kinase 7 (inactive))", "robust z-score, knock-down alone": -2.5, "viability, knock-down alone": 0.767}
{"gene knocked down": "TRIO (trio Rho guanine nucleotide exchange factor)", "robust z-score, knock-down alone": 0.722, "viability, knock-down alone": 0.974}
{"gene knocked down": "NRBP1 (nuclear receptor binding protein 1)", "robust z-score, knock-down alone": -0.173, "viability, knock-down alone": 0.917}
{"gene knocked down": "RFK (riboflavin kinase)", "robust z-score, knock-down alone": 0.112, "viability, knock-down alone": 0.935}
{"gene knocked down": "PRKX (protein kinase cAMP-dependent X-linked catalytic subunit)", "robust z-score, knock-down alone": 1.13, "viability, knock-down alone": 1}
{"gene knocked down": "TGFBR3 (transforming growth factor beta receptor 3)", "robust z-score, knock-down alone": 0.912, "viability, knock-down alone": 0.986}
{"gene knocked down": "MPP3 (MAGUK p55 scaffold protein 3)", "robust z-score, knock-down alone": -2.45, "viability, knock-down alone": 0.77}
{"gene knocked down": "PRPS2 (phosphoribosyl pyrophosphate synthetase 2)", "robust z-score, knock-down alone": -0.405, "viability, knock-down alone": 0.902}
{"gene knocked down": "PIM3 (Pim-3 proto-oncogene, serine/threonine kinase)", "robust z-score, knock-down alone": -0.139, "viability, knock-down alone": 0.919}
{"gene knocked down": "AXIN2 (axin 2)", "robust z-score, knock-down alone": 1.13, "viability, knock-down alone": 1}
{"gene knocked down": "CRIM1 (cysteine rich transmembrane BMP regulator 1)", "robust z-score, knock-down alone": -0.116, "viability, knock-down alone": 0.92}
{"gene knocked down": "STK4 (serine/threonine kinase 4)", "robust z-score, knock-down alone": -0.38, "viability, knock-down alone": 0.903}
{"gene knocked down": "GRK6 (G protein-coupled receptor kinase 6)", "robust z-score, knock-down alone": -0.453, "viability, knock-down alone": 0.899}
{"gene knocked down": "CDK20 (cyclin dependent kinase 20)", "robust z-score, knock-down alone": -1.18, "viability, knock-down alone": 0.852}
{"gene knocked down": "ROR1 (ROR family WNT receptor 1)", "robust z-score, knock-down alone": 1.11, "viability, knock-down alone": 0.999}
{"gene knocked down": "CLK2 (CDC like kinase 2)", "robust z-score, knock-down alone": -1.23, "viability, knock-down alone": 0.849}
{"gene knocked down": "CKS2 (CDC28 protein kinase regulatory subunit 2)", "robust z-score, knock-down alone": -0.00882, "viability, knock-down alone": 0.927}
{"gene knocked down": "BLK (BLK proto-oncogene, Src family tyrosine kinase)", "robust z-score, knock-down alone": 0.942, "viability, knock-down alone": 0.988}
{"gene knocked down": "RIPK1 (receptor interacting serine/threonine kinase 1)", "robust z-score, knock-down alone": -1.09, "viability, knock-down alone": 0.858}
{"gene knocked down": "TYK2 (tyrosine kinase 2)", "robust z-score, knock-down alone": -1.06, "viability, knock-down alone": 0.86}
{"gene knocked down": "MATK (megakaryocyte-associated tyrosine kinase)", "robust z-score, knock-down alone": 1.13, "viability, knock-down alone": 1}
{"gene knocked down": "MECOM (MDS1 and EVI1 complex locus)", "robust z-score, knock-down alone": -0.68, "viability, knock-down alone": 0.884}

2 neighbouring records from above, quoted:
{"gene knocked down": "PRKX (protein kinase cAMP-dependent X-linked catalytic subunit)", "robust z-score, knock-down alone": 1.13, "viability, knock-down alone": 1}
{"gene knocked down": "TGFBR3 (transforming growth factor beta receptor 3)", "robust z-score, knock-down alone": 0.912, "viability, knock-down alone": 0.986}
